Measurements: paper PMC12704088

Sequences of proteins named here, by UniProt entry; tags and fusion partners are left off. A change or cut given only in a name is not applied to a line headed by its entry. A line that says so, or that is headed by a name, gives the form on record, which may keep a tag or linker.
UniProt P21333: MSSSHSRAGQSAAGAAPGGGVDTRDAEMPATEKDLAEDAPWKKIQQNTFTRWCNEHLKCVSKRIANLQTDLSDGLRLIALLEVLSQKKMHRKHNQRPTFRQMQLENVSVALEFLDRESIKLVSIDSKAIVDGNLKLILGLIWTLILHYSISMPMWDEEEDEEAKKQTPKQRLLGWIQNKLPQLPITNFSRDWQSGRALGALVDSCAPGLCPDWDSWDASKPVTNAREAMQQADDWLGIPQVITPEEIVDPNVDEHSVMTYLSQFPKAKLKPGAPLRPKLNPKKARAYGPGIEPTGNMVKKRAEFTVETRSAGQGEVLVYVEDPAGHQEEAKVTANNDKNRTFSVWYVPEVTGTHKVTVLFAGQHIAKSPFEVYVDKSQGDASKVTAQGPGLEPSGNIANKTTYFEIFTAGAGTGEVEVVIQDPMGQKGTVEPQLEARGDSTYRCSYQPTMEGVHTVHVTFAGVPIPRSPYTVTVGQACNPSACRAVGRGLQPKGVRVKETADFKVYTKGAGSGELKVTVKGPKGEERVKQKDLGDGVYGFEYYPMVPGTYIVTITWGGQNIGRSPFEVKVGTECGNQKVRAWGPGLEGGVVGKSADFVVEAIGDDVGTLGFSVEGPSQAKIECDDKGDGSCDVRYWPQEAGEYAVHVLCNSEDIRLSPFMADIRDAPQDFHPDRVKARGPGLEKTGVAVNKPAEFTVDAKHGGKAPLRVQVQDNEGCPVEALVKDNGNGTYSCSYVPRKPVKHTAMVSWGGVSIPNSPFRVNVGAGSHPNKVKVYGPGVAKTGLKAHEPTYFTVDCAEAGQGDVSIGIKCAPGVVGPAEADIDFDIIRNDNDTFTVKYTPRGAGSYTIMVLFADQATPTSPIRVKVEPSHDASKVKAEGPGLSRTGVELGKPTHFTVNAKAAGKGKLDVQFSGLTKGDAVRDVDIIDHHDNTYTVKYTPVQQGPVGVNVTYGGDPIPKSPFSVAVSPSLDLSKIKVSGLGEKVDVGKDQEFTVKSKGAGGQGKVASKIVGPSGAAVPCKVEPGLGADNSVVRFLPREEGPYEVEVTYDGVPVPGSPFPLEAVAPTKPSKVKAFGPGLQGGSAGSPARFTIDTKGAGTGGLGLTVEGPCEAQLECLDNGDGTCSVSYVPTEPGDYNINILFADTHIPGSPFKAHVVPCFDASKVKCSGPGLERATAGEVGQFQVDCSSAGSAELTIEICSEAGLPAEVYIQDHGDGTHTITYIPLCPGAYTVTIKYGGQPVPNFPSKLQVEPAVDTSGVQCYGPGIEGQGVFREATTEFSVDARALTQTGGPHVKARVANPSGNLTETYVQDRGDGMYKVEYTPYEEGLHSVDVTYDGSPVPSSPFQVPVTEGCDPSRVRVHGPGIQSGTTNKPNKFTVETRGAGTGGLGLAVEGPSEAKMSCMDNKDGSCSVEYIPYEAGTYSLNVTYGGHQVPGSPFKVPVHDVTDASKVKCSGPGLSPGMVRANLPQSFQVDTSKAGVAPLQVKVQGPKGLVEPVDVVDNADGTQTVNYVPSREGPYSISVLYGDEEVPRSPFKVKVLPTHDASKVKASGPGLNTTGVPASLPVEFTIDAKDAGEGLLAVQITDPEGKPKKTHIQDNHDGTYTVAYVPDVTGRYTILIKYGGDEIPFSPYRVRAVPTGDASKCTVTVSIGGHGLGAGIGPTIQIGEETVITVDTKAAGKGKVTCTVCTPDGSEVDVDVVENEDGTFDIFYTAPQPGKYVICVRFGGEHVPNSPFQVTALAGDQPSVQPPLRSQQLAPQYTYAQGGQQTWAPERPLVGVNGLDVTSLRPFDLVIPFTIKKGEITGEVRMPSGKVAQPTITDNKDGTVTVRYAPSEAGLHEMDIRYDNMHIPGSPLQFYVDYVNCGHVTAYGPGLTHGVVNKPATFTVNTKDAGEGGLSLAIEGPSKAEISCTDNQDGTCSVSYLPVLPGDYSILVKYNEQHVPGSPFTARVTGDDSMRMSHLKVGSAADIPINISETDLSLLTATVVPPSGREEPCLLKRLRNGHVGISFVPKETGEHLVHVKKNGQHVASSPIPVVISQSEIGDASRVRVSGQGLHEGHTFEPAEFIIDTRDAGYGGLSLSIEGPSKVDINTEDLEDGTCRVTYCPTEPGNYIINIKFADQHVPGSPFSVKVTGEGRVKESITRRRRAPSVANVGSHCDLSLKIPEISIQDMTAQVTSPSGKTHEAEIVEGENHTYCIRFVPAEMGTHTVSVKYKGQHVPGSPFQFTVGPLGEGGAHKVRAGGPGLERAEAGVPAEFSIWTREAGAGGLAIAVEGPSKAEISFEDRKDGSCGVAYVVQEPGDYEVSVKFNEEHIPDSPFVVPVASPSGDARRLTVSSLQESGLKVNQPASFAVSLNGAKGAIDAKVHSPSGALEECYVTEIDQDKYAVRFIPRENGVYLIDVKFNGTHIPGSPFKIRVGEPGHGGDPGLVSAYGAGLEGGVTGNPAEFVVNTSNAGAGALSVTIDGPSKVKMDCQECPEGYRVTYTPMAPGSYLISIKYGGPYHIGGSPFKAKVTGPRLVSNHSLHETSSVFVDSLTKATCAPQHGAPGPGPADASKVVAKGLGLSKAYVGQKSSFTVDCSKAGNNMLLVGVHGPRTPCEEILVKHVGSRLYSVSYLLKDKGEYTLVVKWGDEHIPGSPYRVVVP
mCherry-FLNA Δ571-866 (P21333, form named): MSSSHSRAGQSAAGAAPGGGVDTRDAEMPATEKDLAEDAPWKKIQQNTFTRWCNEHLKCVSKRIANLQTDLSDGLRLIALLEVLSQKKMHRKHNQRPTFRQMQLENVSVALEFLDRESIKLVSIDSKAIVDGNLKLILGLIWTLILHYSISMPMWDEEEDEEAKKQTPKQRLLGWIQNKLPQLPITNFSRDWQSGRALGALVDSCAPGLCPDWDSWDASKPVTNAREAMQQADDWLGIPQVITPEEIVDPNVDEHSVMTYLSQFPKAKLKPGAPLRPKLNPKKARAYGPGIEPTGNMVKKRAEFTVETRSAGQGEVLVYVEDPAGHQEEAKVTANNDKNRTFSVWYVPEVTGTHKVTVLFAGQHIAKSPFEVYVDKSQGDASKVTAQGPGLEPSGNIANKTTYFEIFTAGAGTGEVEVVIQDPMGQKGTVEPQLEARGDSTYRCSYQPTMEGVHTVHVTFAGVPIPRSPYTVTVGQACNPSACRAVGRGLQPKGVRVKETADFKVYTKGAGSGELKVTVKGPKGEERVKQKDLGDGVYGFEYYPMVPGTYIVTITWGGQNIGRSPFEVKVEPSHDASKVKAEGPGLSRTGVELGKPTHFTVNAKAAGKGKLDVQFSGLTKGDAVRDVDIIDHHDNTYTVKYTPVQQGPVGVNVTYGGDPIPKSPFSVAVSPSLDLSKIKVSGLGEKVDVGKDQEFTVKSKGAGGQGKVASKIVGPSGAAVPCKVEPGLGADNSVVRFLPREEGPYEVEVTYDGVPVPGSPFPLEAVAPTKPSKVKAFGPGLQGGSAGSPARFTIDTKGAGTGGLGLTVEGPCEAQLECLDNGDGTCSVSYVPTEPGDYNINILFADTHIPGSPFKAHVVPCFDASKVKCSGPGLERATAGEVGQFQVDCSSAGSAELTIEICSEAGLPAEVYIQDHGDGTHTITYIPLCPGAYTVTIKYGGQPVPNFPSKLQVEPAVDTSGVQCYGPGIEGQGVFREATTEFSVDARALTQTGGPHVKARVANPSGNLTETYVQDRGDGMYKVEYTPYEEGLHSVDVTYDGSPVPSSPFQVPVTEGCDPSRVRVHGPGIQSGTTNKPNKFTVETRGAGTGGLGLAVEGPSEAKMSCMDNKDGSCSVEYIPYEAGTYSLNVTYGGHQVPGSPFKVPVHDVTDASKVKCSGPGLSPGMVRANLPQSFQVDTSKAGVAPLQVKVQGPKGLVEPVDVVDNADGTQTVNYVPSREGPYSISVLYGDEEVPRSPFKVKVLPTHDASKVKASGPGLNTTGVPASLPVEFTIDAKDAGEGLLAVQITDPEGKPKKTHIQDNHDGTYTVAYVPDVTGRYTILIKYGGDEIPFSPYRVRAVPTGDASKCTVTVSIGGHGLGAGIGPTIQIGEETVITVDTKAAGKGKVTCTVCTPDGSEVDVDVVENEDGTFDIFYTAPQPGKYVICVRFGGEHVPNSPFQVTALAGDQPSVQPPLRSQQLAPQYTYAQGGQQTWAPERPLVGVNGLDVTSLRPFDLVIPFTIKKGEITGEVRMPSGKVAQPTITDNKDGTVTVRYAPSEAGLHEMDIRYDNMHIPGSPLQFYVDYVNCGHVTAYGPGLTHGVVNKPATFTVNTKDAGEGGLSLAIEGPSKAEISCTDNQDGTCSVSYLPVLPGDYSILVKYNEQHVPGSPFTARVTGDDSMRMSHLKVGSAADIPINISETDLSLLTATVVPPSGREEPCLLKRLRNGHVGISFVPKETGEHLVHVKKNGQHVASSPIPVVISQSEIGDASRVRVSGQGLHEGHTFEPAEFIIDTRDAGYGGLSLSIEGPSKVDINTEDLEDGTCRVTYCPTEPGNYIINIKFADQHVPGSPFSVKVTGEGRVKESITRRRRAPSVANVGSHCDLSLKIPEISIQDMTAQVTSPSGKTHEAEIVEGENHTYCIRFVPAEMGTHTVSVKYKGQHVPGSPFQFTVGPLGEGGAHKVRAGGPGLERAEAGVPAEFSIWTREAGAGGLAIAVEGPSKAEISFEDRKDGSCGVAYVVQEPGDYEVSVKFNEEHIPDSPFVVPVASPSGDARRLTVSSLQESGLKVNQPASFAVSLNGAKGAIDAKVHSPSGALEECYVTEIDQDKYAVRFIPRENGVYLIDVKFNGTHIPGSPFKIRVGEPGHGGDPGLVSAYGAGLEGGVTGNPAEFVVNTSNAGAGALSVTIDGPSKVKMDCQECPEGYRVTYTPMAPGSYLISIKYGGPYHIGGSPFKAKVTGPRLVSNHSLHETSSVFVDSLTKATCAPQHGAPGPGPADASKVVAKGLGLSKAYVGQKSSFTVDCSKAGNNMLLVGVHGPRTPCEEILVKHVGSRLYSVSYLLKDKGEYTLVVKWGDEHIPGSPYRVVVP

Legend:
[1] = biological target: Filamin A (FLNA), endogenous (human (endogenous in HepG2, HLF, HuH7, Hep3B and human organoids)) (UniProt P21333); assay: co-IP; IP with anti-FLNA antibody of endogenous FLNA from HuH7 and HLF cell lysates; immunoblot for DLC1
[2] = biological target: Filamin A (FLNA), endogenous (human (endogenous in HepG2, HLF, HuH7, Hep3B and human organoids)) (UniProt P21333); assay: proximity ligation; DuoLink in situ PLA with anti-DLC1, anti-FLNA and anti-MRTF-A antibodies in fixed HepG2, HLF, HuH7, Hep3B cells and monolayers of human organoids; treatments: HA-FLNA-ABD or GFP-DLC1 expression, tat-DLC1bp, HA-100, EGF, LPA, Latrunculin B, S14C-actin, RhoAV14
[3] = biological target: Myc-FLNA (Filamin A, wild type) (UniProt P21333); assay: co-IP; IP with anti-Myc antibody on Dynabeads from lysates of transfected HuH7 cells (150 mM NaCl, 50 mM Tris-HCl, 10% glycerol), overnight 4°C; immunoblot; IgG or beads-only control
mCherry-FLNA Δ571-866 = mCherry-FLNA Δ571-866 (UniProt P21333); assay: co-IP; IP with anti-mCherry antibody on Dynabeads from lysates of transfected HuH7 cells; immunoblot with anti-mCherry and anti-Flag; beads-only control
Myc-FLNA S2152A = Myc-FLNA S2152A (UniProt P21333); assay: co-IP; IP with anti-Myc antibody on Dynabeads from lysates of transfected HuH7 cells (150 mM NaCl, 50 mM Tris-HCl, 10% glycerol), overnight 4°C; immunoblot; IgG or beads-only control
[4] = biological target: FLNA with a fluorescent protein for FRET (UniProt P21333); assay: FRET or BRET; acceptor photobleaching FRET (ECFP donor, dsRed acceptor) in fixed transfected cells, serum-starved 18 h, 20 µM LPA or H2O for 45 min

Substance: Deleted in Liver Cancer 1 (DLC1), endogenous (from UniProt Q96QB1-1)
- binding [1]: binds
- binding [2]: binds

Substance: GFP-DLC1 ΔRhoGAP (from UniProt Q96QB1-2)
- binding [3]: no binding

Substance: GFP-DLC1 full length (wild type) (from UniProt Q96QB1-1)
- binding [3]: binds

Substance: Flag-DLC1 (Deleted in Liver Cancer 1) (from UniProt Q96QB1-1)
- binding (mCherry-FLNA Δ571-866): binds
- binding (Myc-FLNA S2152A): binds
- binding [3]: binds

Substance: DLC1 with a fluorescent protein for FRET (from UniProt Q96QB1-1)
- binding [4]: binds

These are yes or no findings as the source states them, for the method shown. In cells and extracts the contact can be indirect. Binding calls can cover weak binding; strength is not graded here.
